Source: PubChem BioAssay AID1224826 (NIAID, 2016)

Screen: 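Genes that change LPS-induced Tnf promoter activity in mouse macrophages when knocked down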 (primary screen)
Cell system: RAW264.7 G9 macrophages from mouse bearing reporters for p65 (GFP) and the Tnf promoter (mCherry)
Reagent: siRNA pool against mouse genes, 100 nM
Time to read-out: 16 h of LPS stimulation, after 2 days of siRNA transfection
Conditions: bacterial lipopolysaccharide (Salmonella minnesota R595), 10 ng/ml
Measured: 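Nuclear mCherry signal of the Tnf promoter reporter measured by imaging after background removal, scaled to each plate median and turned into robust z-scores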
Direction: Tnf reporter robust z-score: higher = stronger Tnf promoter reporter signal after LPS; Tnf reporter intensity: higher = stronger Tnf promoter reporter signal
Active means: 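Called active when robust z-score is at most -1.3, matching the median of the Tlr4 knock-down control, or over 3; control wells and wells with under 50 cells never active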
Calls: active = Tnf reporter clearly lowered or raised; inactive = no clear change in Tnf reporter
The deposit covers about 17,000 reagents; this is a part drawn at random. About 1,110 of them (6.6%) count as active. 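Active means lowered or raised reporter signal; replicate intensities are raw and not normalised per plate.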 The numbers tell different reagents against one gene apart. Reagent sequences are not shown.

Gene | pool no. | Tnf reporter robust z-score | fewer than 50 cells in well | Tnf reporter intensity, replicate 1 | Tnf reporter intensity, replicate 2 | Outcome
Ahcyl2 | 1 | – | fewer than 50 cells per well; well left out of calls | 167 | 73.5 | inactive
Ptpn12 | 1 | -1.39 | enough cells in well | 162 | 74.6 | active
Atg2b | 1 | 0.95 | enough cells in well | 267 | 112 | inactive
Atg2b | 2 | 1.61 | enough cells in well | 275 | 242 | inactive
Dmtf1 | 1 | – | fewer than 50 cells per well; well left out of calls | 154 | 161 | inactive
Cenpa | 1 | 0.02 | enough cells in well | 251 | 206 | inactive
Sox10 | 1 | -0.72 | enough cells in well | 185 | 185 | inactive
Golph3l | 1 | – | fewer than 50 cells per well; well left out of calls | 160 | 51.6 | inactive
Zdhhc15 | 1 | 1.96 | enough cells in well | 186 | 230 | inactive
Tlr3 | 1 | -0.68 | enough cells in well | 138 | 102 | inactive
Adam8 | 1 | 0.86 | enough cells in well | 293 | 215 | inactive
Ccdc28b | 1 | 1.49 | enough cells in well | 317 | 82.4 | inactive
Plrg1 | 1 | -0.99 | enough cells in well | 180 | 114 | inactive
Ptprn2 | 1 | 2.16 | enough cells in well | 539 | 351 | inactive
Suv39h1 | 1 | -0.04 | enough cells in well | 288 | 201 | inactive
Krtap13-21 | 1 | – | fewer than 50 cells per well; well left out of calls | 371 | 48.2 | inactive
Or10h28 | 1 | -0.69 | enough cells in well | 85.3 | 88.6 | inactive
Paqr9 | 1 | -0.43 | enough cells in well | 182 | 72.3 | inactive
Dvl1 | 1 | 1.4 | enough cells in well | 300 | 345 | inactive
Nqo1 | 1 | -0.83 | enough cells in well | 196 | 114 | inactive
Dkk4 | 1 | 0.98 | enough cells in well | 224 | 170 | inactive
Clxn | 1 | 0.68 | enough cells in well | 202 | 185 | inactive
Agr3 | 1 | -0.17 | enough cells in well | 176 | 108 | inactive
Zfp467 | 1 | 1.91 | enough cells in well | 189 | 223 | inactive
Timp2 | 1 | 1.15 | enough cells in well | 282 | 212 | inactive
Cygb | 1 | -0.07 | enough cells in well | 218 | 132 | inactive
Klrc3 | 1 | 0.72 | enough cells in well | 249 | 156 | inactive
Spmip8 | 1 | 1.51 | enough cells in well | 392 | 96.8 | inactive
4631423B10Rik | 1 | -0.81 | enough cells in well | 128 | 40.1 | inactive
Igf2 | 1 | -0.31 | enough cells in well | 236 | 149 | inactive
Dbh | 1 | -1.03 | enough cells in well | 140 | 160 | inactive
Myo3b | 1 | -1.31 | enough cells in well | 94.5 | 87 | active
Fdft1 | 1 | 0.32 | enough cells in well | 262 | 246 | inactive
Slc2a6 | 1 | – | fewer than 50 cells per well; well left out of calls | 133 | 65.9 | inactive
Xylt2 | 1 | 1.11 | enough cells in well | 121 | 228 | inactive
Pdk2 | 1 | -0.68 | enough cells in well | 102 | 171 | inactive
Fgf13 | 1 | 0.15 | enough cells in well | 262 | 255 | inactive
Ndrg3 | 1 | 0.54 | enough cells in well | 303 | 106 | inactive
Brs3 | 1 | -1.08 | enough cells in well | 122 | 212 | inactive
Vps53 | 1 | 0.01 | enough cells in well | 174 | 52.8 | inactive
Nanp | 1 | 2.52 | enough cells in well | 288 | 297 | inactive
Tspyl2 | 1 | -0.93 | enough cells in well | 138 | 72.5 | inactive
Mtch2 | 1 | -0.19 | enough cells in well | 201 | 106 | inactive
Slc25a30 | 1 | -0.47 | enough cells in well | 96.2 | 73.2 | inactive
Ttc17 | 1 | – | fewer than 50 cells per well; well left out of calls | 135 | 78.6 | inactive
Ifna2 | 1 | -0.62 | enough cells in well | 219 | 122 | inactive
Or51l4 | 1 | – | fewer than 50 cells per well; well left out of calls | 40.6 | 139 | inactive
Kmt2b | 1 | -0.81 | enough cells in well | 112 | 117 | inactive
Zfp747 | 1 | 1.65 | enough cells in well | 321 | 251 | inactive
Blvra | 1 | -0.24 | enough cells in well | 105 | 188 | inactive
Cyp2a12 | 1 | 1.39 | enough cells in well | 312 | 216 | inactive
Itgb5 | 1 | 0.95 | enough cells in well | 318 | 197 | inactive
Il12rb2 | 1 | -0.23 | enough cells in well | 198 | 192 | inactive
Tspan17 | 1 | -0.93 | enough cells in well | 176 | 138 | inactive
Or5p56 | 1 | -0.7 | enough cells in well | 144 | 87.9 | inactive
Ago2 | 1 | 0.06 | enough cells in well | 187 | 120 | inactive
Pkn3 | 1 | 0.69 | enough cells in well | 280 | 163 | inactive
Sez6l2 | 1 | 0.1 | enough cells in well | 234 | 217 | inactive

Records listed so far whose gene name begins with N or n:
Gene | pool no. | Tnf reporter robust z-score | fewer than 50 cells in well | Tnf reporter intensity, replicate 1 | Tnf reporter intensity, replicate 2 | Outcome
Nqo1 | 1 | -0.83 | enough cells in well | 196 | 114 | inactive
Ndrg3 | 1 | 0.54 | enough cells in well | 303 | 106 | inactive
Nanp | 1 | 2.52 | enough cells in well | 288 | 297 | inactive
